Tested on: naturally aged mice
Experiment: Anti-aging evaluation in naturally aged mice, Example 31, Table 55;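 also: Vehicle-dosed control mice received solution alone at matching volume, values compare test-compound-treated aged mice against that control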
Type: in vivo, mouse
Conditions: untreated = 100%

COc1cc(OC)cc(N(CCNC(C)C)c2ccc3ncc(-c4cnn(C)c4)nc3c2)c1 [LX-1903, Erdafitinib]
Kidney Agtr1a mRNA: 78%
